Data source: PubChem BioAssay AID1671195 (Yale University, 2021)
Purpose: 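Genes whose knockdown alters LDL uptake in liver cancer cells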 (primary screen). Cell system: human Huh7 hepatoma cells. Knock-down reagent: siRNA pool against human genes, 18 nM. Time to read-out: about 2 to 2.5 days of knockdown, then 8 h LDL uptake. Challenge: DiI-labelled LDL at 30 µg/ml for 8 h, in lipoprotein-deficient serum medium. Measurement: 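Fluorescent LDL signal imaged in cells, scaled to the plate median, robust z-score for each replicate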. Scale: robust z-score: higher = more LDL uptake after knockdown. Call rule: 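a gene counts as active if at least two replicate z-scores exceed ±2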.
Shown is one part, drawn at random, of about 22,000 deposited reagents. About 1,510 of all reagents (6.9%) count as active. 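Active includes knockdowns raising or lowering LDL uptake; positive z-scores mean more uptake, negative mean less.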

robust z-score, replicate 1 | robust z-score, replicate 2 | robust z-score, replicate 3 | outcome | target gene
-0.173 | -0.176 | -0.168 | inactive | UBP1
-1.64 | -2 | -1.7 | inactive | JADE2
0.494 | 0.423 | 0.546 | inactive | DOCK11
-0.341 | 0.0433 | -0.0498 | inactive | CD99L2
0.942 | 0.0317 | 0.213 | inactive | LOC441805 (retired record)
-1.33 | -0.279 | -0.964 | inactive | AZIN2
-0.851 | -0.563 | -0.435 | inactive | RAD23BP1
-0.829 | -1.19 | -0.749 | inactive | ALKBH6
-1.41 | -1.41 | -1.14 | inactive | NUBPL
4.78 | -0.0353 | 1.01 | inactive | FBXO25
-0.73 | -0.48 | -0.912 | inactive | EP400P1
-0.918 | -0.563 | -0.777 | inactive | PTBP1
-1.18 | -1.37 | -1.25 | inactive | INPP5D
-0.502 | -0.399 | -0.292 | inactive | EIF4E3
1.57 | 1.62 | 2.27 | inactive | NKAPD1
-0.156 | -0.292 | 0.102 | inactive | ARHGDIB
1.07 | 0.845 | 0.969 | inactive | CCL27
-1.4 | 0.0889 | -1.05 | inactive | MTFP1
2.07 | 1.54 | 1.44 | inactive | SIRAL1
0.54 | -0.233 | -0.482 | inactive | TADA2B
0.43 | -0.783 | 0.508 | inactive | CLEC2B
0.0466 | 0.249 | 0.353 | inactive | LOC442127 (retired record)
0.3 | 0.0195 | 0.471 | inactive | BTN3A3
2.66 | 2.78 | 2.17 | active | COX8A
-0.597 | -0.881 | 0.163 | inactive | OTOF
-0.485 | -0.106 | 0.096 | inactive | CPLX1
-0.284 | 0.689 | 0.385 | inactive | GRAP
0.726 | 0.678 | 0.918 | inactive | RIBC1
0.106 | -0.552 | 0.445 | inactive | DOP1B
-0.553 | -0.0601 | -0.447 | inactive | LOC392586 (retired record)
-0.599 | -0.605 | -0.33 | inactive | ZCCHC13
-0.732 | -0.652 | -1.57 | inactive | MGC27382
0.641 | 0.617 | 1.72 | inactive | SLC2A8
0.38 | -1.18 | 0.172 | inactive | DAP
0.837 | 0.42 | 0.173 | inactive | SNX20
0.394 | 1.22 | 0.232 | inactive | LOC440036 (retired record)
-0.815 | -1.42 | -1.02 | inactive | CFD
-0.165 | 0.0826 | -0.0899 | inactive | DEFB106A
-0.733 | 0.557 | -0.211 | inactive | TMEM54
-0.364 | 0.179 | 0.119 | inactive | GRIA4
0.0136 | 0.199 | -0.264 | inactive | KCNA6
-0.414 | -0.677 | -0.376 | inactive | LOC400843 (retired record)
-0.183 | 0.12 | -0.433 | inactive | NOXA1

Next part (3 carried over from the part before).
robust z-score, replicate 1 | robust z-score, replicate 2 | robust z-score, replicate 3 | outcome | target gene
0.0136 | 0.199 | -0.264 | inactive | KCNA6
-0.414 | -0.677 | -0.376 | inactive | LOC400843 (retired record)
-0.183 | 0.12 | -0.433 | inactive | NOXA1
0.431 | 0.148 | 0.66 | inactive | VRK2
-1.45 | -1.39 | -1.45 | inactive | BCL2L13
-0.308 | -0.45 | -0.578 | inactive | CNOT8
-0.801 | -0.785 | -0.506 | inactive | CHD3
-0.342 | 0.554 | 0.0995 | inactive | MPO
1.05 | 0.933 | 0.756 | inactive | BAG4
2.31 | 2.19 | 3.02 | active | SLC23A2
-0.64 | 1.1 | -1.09 | inactive | RUSC1
-1.14 | -1.03 | -0.923 | inactive | SCP2
-0.634 | -0.562 | -0.968 | inactive | DYTN
-0.0385 | -0.729 | -1.45 | inactive | RAB11FIP3
0.968 | 0.694 | 0.637 | inactive | H3P44
0.525 | 0.545 | 0.411 | inactive | LRRC8A
0.269 | 0.537 | 0.444 | inactive | LDHC
-0.329 | 2.44 | 1.54 | inactive | IL37
-1.47 | -1.23 | -1.65 | inactive | RTKN
-1.42 | -1.7 | -1.84 | inactive | CA11
-0.205 | 0.269 | -0.397 | inactive | NECTIN3
0.411 | 0.399 | 0.209 | inactive | LOC389803 (retired record)
-0.0946 | -0.28 | -0.468 | inactive | LCE3E
1.26 | 1.57 | 1.06 | inactive | POU4F3
0.0067 | 0.0388 | 0.666 | inactive | TSR2
0.907 | 0.711 | 0.175 | inactive | TACC1
-0.39 | 1.9 | 0.849 | inactive | SEMA4A
0.915 | -0.224 | 0.297 | inactive | KRT81
